Source: paper PMC5668883
These are yes or no findings as the source states them, for the method shown. For some of these results: Binding seen in cells or lysates may run through a third protein. Some entries that bind do so weakly or less than the wild type. Blank lines part the entries; values can stand above or below the substance they belong to.

The chains behind the UniProt entries cited, without tags or fusion partners. Residues count along the entry.
UniProt Q04206: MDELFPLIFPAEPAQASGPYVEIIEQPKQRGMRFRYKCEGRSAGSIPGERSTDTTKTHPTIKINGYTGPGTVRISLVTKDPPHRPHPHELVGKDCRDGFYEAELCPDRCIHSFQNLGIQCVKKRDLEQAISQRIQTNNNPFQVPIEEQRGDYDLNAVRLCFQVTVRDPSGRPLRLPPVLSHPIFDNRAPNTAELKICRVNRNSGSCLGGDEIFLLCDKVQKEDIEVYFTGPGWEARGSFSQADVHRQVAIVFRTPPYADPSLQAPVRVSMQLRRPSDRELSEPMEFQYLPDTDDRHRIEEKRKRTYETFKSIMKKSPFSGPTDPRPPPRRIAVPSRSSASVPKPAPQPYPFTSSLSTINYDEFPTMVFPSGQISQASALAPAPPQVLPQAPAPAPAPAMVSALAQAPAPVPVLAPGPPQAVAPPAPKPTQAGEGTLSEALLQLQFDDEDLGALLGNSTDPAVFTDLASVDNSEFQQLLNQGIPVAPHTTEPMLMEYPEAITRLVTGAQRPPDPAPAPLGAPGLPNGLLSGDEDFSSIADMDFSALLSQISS
UniProt P11142: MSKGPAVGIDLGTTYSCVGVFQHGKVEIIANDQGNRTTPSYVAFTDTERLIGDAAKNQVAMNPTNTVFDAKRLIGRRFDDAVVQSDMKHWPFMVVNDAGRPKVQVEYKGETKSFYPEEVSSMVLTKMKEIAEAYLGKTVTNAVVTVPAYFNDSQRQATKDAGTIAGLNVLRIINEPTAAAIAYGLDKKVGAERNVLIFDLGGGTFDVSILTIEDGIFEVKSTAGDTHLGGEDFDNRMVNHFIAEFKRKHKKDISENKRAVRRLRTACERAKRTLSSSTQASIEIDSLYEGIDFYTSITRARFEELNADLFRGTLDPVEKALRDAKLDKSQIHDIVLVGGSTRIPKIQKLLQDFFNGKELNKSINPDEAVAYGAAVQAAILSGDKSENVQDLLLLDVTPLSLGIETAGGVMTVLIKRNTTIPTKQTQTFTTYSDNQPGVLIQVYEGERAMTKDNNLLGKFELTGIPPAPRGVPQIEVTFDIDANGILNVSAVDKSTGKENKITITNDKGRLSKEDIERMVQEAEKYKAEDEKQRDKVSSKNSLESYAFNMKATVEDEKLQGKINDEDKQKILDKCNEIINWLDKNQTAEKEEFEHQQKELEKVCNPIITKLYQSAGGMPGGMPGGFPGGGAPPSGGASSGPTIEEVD
UniProt P13473, residues 29-410: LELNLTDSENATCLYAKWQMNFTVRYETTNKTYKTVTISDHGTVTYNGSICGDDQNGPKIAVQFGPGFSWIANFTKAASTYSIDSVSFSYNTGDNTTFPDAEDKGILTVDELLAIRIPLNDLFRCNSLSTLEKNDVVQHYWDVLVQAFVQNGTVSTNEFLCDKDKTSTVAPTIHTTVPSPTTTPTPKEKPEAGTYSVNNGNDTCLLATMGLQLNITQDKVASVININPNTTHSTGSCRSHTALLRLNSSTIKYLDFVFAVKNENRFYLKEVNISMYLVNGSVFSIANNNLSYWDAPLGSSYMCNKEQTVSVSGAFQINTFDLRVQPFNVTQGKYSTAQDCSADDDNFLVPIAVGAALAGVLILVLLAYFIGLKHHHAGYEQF

What was measured:
Flag-p65-full-length = Flag-p65-full-length (UniProt Q04206); assay: co-IP; HEK293T transfected with Flag-tagged p65 or Flag-tagged HSC70; Flag M2 beads 48 h post transfection, immunoblot
[1] = biological target: p65 (endogenous) (human (endogenous in HEK293T)) (UniProt Q04206); assay: co-IP; endogenous proteins; HEK293T cell lysates immunoprecipitated with anti-p65, anti-LAMP2 or anti-HSC70 antibodies, western blot
GST-HSC70 = GST-HSC70 (UniProt P11142); assay: pull-down; GST fusion protein from E. coli on Glutathione Sepharose 4B, washed, incubated with whole-cell lysate of HEK293T cells expressing Flag-tagged proteins for 6 h at 4 °C, western blot; only the target purified
Flag-HSC70-FL = Flag-HSC70-FL (UniProt P11142); assay: co-IP; HEK293T transfected with Flag-tagged p65 or Flag-tagged HSC70; Flag M2 beads 48 h post transfection, immunoblot
[2] = biological target: HSC70 (endogenous) (human (endogenous in HEK293T)) (UniProt P11142); assay: co-IP; endogenous proteins; HEK293T cell lysates immunoprecipitated with anti-p65, anti-LAMP2 or anti-HSC70 antibodies, western blot
[3] = biological target: LAMP2 (endogenous) (human (endogenous in HEK293T)) (UniProt P13473); assay: as above
GST-p65 = GST-p65 (UniProt Q04206); assay: pull-down; GST or GST-p65 from E. coli on Glutathione Sepharose 4B, washed, incubated with His-tagged HSC70 from E. coli for 6 h at 4 °C, western blot; both purified

binding (Flag-p65-full-length): binds
binding [1]: binds
Substance: HSC70 (endogenous) (from UniProt P11142 1-646)

binding (GST-HSC70): binds
Substance: Flag-p65-full-length (from UniProt Q04206 1-551)

binding (Flag-HSC70-FL): binds
binding [2]: binds
binding [3]: binds
Substance: p65 (endogenous) (from UniProt Q04206 1-551)

binding (GST-p65): binds
Substance: His-HSC70 (from UniProt P11142 1-646)
